Experimental data taken from the supplement of paper PMC12067093, “Discovery and optimisation of a covalent ligand for TRIM25 and its application to targeted protein ubiquitination” (Chemical Science, 2025).
Some of the results follow.

Protein sequences, listed by entry. Tags and fused reporters are not part of them. Lines headed by an entry give the natural chain unless they say otherwise; changes in a name come on top.
UniProt O75410: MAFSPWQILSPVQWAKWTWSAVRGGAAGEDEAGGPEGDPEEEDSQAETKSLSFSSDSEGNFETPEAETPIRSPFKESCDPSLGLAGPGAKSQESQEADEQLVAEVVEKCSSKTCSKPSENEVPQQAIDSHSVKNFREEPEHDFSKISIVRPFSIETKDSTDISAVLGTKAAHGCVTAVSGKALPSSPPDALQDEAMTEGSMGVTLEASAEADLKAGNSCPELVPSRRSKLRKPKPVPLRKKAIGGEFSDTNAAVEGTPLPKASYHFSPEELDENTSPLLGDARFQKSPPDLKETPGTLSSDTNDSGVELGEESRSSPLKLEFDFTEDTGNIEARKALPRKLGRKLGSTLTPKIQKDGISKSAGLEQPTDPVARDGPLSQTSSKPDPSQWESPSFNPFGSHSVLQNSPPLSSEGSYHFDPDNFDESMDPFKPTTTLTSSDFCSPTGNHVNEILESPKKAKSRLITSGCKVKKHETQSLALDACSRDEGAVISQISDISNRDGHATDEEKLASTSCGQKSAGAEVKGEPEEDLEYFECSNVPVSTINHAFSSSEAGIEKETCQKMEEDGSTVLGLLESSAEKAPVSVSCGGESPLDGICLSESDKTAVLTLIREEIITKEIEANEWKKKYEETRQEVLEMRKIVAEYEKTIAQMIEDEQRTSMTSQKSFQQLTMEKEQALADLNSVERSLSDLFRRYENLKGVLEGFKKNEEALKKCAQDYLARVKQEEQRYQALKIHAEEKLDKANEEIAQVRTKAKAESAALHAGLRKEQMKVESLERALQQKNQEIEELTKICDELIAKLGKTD
UniProt Q16563: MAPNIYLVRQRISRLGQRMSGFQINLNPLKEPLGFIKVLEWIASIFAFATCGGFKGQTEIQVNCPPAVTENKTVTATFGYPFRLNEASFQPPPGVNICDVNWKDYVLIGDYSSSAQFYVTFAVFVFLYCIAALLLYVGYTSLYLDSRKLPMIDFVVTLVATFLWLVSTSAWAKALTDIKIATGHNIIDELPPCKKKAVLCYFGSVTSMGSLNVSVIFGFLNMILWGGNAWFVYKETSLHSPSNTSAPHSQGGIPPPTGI
UniProt Q8WUA7: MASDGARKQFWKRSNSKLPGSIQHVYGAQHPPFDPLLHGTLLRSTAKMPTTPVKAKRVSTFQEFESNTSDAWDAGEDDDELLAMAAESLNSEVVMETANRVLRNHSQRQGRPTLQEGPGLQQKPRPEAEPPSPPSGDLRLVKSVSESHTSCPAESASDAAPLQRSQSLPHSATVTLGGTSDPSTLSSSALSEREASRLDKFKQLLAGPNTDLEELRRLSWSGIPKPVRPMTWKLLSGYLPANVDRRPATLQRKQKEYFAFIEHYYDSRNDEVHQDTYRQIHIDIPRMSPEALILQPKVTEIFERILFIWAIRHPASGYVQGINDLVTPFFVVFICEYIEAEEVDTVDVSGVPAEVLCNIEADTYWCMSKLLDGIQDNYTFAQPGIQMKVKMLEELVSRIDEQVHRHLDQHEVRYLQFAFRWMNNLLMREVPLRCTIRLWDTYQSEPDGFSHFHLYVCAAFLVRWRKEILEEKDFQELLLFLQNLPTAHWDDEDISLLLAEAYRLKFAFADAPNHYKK
UniProt Q9NVG8: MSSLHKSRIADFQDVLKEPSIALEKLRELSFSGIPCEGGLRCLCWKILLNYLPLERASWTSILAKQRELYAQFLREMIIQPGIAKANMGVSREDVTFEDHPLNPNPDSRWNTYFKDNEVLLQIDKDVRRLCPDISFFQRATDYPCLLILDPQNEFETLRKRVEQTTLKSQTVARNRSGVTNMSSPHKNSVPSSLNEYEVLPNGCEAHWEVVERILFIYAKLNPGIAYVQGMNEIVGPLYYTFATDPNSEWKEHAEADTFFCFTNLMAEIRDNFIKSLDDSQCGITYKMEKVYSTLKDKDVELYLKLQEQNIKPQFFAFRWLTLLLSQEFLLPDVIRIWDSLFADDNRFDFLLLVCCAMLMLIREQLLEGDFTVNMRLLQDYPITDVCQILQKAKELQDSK
UniProt Q96C24: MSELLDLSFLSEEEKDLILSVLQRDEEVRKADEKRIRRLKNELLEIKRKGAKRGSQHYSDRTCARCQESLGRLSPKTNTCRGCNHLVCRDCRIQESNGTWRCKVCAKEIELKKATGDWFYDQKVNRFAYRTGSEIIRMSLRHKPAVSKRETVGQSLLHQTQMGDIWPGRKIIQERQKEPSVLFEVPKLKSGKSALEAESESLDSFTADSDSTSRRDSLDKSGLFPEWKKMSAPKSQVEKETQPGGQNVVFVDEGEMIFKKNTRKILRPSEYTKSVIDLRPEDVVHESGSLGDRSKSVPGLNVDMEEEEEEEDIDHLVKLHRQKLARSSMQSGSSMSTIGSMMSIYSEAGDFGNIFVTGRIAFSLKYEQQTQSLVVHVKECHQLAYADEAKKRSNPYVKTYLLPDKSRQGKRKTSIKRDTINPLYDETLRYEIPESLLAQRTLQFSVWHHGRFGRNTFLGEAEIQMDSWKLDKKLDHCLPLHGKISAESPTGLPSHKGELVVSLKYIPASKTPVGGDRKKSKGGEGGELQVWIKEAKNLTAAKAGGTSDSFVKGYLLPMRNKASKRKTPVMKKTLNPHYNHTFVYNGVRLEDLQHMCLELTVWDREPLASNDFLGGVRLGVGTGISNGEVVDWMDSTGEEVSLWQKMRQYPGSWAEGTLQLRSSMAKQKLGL
UniProt P62380: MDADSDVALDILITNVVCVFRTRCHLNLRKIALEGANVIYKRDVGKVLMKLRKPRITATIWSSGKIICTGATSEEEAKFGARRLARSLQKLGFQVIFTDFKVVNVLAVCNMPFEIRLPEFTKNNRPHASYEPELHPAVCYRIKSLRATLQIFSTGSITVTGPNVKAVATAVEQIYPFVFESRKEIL
UniProt Q8TEA7: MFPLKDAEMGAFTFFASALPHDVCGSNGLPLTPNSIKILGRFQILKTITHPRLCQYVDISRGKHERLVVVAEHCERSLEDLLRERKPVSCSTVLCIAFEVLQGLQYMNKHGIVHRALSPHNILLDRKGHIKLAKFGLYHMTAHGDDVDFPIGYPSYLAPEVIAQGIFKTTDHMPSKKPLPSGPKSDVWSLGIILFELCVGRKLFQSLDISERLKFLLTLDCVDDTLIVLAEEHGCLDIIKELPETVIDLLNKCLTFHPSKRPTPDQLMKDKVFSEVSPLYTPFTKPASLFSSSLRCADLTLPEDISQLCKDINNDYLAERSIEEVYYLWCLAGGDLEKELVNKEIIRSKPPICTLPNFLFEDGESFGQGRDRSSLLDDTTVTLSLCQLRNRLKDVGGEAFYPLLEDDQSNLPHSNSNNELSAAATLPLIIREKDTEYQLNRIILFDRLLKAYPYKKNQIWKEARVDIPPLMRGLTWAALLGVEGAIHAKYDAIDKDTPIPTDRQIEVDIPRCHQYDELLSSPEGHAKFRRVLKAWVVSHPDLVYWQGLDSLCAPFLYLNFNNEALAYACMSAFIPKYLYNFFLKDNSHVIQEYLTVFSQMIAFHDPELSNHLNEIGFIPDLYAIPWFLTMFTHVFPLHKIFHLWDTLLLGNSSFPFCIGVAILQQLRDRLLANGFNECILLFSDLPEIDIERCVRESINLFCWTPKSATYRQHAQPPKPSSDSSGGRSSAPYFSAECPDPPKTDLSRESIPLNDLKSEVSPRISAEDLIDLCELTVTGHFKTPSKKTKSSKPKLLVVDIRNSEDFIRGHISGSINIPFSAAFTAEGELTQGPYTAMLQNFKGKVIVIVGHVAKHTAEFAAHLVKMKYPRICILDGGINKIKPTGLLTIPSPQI
UniProt P26639: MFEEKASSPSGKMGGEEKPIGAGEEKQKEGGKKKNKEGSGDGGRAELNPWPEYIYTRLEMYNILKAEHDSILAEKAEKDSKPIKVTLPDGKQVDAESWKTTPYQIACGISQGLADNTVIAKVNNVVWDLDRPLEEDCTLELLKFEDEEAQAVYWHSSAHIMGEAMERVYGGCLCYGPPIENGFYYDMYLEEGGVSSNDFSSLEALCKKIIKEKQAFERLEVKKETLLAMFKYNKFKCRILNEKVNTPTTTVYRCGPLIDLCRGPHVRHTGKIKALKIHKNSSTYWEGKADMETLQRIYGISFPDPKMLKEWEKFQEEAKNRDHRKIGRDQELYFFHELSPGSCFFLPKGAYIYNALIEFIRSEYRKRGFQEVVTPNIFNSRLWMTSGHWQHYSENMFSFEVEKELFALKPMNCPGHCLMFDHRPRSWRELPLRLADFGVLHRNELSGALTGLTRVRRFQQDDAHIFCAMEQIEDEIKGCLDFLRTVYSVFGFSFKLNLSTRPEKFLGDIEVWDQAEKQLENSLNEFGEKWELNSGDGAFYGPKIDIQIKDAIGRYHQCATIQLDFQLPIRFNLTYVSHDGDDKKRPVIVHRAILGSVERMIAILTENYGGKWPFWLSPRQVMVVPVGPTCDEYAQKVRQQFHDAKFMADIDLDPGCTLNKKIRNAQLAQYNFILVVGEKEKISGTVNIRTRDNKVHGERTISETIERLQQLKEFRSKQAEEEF
UniProt Q9BX59, whole entry, looked up: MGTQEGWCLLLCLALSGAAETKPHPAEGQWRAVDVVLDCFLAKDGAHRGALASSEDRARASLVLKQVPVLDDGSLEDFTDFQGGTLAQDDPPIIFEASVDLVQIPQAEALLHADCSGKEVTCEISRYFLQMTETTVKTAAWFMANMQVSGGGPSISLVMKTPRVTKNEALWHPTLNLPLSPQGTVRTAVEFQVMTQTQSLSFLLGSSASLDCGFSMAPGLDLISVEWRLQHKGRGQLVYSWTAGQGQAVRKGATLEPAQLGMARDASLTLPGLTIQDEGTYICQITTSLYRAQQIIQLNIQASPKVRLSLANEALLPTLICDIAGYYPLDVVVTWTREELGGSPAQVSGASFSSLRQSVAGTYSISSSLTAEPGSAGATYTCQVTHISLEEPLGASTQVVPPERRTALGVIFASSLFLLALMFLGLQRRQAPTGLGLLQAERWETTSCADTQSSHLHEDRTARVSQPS
UniProt O60506: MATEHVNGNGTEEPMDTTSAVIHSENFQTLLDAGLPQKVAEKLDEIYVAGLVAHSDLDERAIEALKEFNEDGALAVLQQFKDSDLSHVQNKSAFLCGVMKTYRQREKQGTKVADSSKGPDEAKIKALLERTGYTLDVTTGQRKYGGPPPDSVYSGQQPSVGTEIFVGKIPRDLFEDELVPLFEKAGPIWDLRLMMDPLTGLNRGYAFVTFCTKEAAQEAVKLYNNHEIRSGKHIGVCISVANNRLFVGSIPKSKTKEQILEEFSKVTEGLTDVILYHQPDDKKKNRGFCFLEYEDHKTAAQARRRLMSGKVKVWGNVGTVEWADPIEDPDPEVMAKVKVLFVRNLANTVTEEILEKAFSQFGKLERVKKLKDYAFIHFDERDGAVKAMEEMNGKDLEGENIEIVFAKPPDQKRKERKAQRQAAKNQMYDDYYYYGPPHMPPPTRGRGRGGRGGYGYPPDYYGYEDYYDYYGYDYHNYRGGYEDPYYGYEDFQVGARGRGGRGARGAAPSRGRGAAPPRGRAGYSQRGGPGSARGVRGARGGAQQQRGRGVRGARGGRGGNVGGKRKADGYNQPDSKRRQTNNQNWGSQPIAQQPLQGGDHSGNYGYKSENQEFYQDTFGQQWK
UniProt Q6NXT6: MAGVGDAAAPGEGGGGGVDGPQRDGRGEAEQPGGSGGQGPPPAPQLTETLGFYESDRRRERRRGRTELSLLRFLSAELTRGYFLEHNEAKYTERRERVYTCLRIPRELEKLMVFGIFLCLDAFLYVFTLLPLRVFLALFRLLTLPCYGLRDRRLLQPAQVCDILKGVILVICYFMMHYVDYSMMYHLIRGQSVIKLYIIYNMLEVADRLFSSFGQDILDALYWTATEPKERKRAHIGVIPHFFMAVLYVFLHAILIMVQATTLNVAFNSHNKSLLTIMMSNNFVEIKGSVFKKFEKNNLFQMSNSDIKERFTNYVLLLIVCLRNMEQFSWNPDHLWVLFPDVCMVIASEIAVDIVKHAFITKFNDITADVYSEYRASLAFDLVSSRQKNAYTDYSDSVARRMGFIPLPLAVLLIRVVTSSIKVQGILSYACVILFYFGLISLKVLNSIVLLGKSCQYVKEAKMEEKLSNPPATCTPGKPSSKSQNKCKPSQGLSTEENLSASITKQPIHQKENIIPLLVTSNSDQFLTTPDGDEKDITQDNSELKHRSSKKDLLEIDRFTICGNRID
UniProt Q12962, whole entry: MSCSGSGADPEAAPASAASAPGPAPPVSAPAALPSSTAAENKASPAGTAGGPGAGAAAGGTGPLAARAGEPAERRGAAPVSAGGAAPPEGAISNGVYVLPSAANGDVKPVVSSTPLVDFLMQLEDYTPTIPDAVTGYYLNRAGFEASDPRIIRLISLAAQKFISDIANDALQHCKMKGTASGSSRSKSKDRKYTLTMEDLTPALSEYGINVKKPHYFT
UniProt Q99426: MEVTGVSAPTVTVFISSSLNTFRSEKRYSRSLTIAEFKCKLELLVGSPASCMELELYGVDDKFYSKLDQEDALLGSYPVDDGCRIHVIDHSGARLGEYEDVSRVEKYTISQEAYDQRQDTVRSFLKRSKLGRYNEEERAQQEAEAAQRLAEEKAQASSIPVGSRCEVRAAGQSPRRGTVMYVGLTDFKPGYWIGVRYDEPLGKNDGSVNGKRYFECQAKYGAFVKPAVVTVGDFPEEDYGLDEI

The targets below were run with Cc1cc(ccc1-c1ccccc1)C(=O)N1CCCN(CC1)C(=O)CCl [compound 10] (assay: probe-labelled cysteine peptide fold change vs DMSO (competition) (log2 fold change); higher = less target engagement (more negative = stronger competition)). Conditions: 10 µM; THP-1; incubation time: 4 h.
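Also: competitive profiling in live THP-1 cells: cysteine peptides tagged with an iodoacetamide desthiobiotin (IA-DTB) probe, intensity after compound treatment relative to DMSO-treated cells.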

Target | probe-labelled cysteine peptide fold change
TACC1_O75410_114_TCSKPSENEVPQQAIDSHSVK (UniProt O75410) | -0.266
TAF5L_O75529_318_IHLACDILEEEDDEDDNAGTEMK (UniProt O75529) | -0.138
TARS2_Q9BW92_233_VTGPTATVYGCGTLVDLCQGPHLR (UniProt Q9BW92) | 0.287
SYPL1_Q16563_193_IATGHNIIDELPPCK (UniProt Q16563) | -0.147
TCEANC2_Q96MN5_163_ETFHLCSR (UniProt Q96MN5) | 0.315
TBC1D22A_Q8WUA7_151_SVSESHTSCPAESASDAAPLQR (UniProt Q8WUA7) | -0.431
TBC1D13_Q9NVG8_204_NSVPSSLNEYEVLPNGCEAHWEVVER (UniProt Q9NVG8) | 0.261
TBL3_Q12788_555_LWALQDFSCLK (UniProt Q12788) | 0.0566
SYTL4_Q96C24_596_LEDLQHMCLELTVWDREPLASNDFLGGVR (UniProt Q96C24) | 0.232
TBC1D1_Q86TI0_701_SPLEPVCEDGPFGPPPEEK (UniProt Q86TI0) | -0.31
TBC1D5_Q92609_192_ILTDVLFCYAR (UniProt Q92609) | 0.105
TBPL1_P62380_24_CHLNLR (UniProt P62380) | 0.00768
TBCK_Q8TEA7_330_SIEEVYYLWCLAGGDLEK (UniProt Q8TEA7) | -0.139
TARS_P26639_254_CGPLIDLCR (UniProt P26639) | 0.126
TBL3_Q12788_129_AIHTAPVATMAFDPTSTLLATGGCDGAVR (UniProt Q12788) | 0.169
TAPBP_O15533_91_GAPAPHCEMSR (UniProt O15533) | -0.0185
TAX1BP1_Q86VP1_196_ERCDQLQAEQK (UniProt Q86VP1) | -0.325
TARS_P26639_107_TTPYQIACGISQGLADNTVIAK (UniProt P26639) | 0.0295

Target | probe-labelled cysteine peptide fold change
TBC1D4_O60343_402_HVDHFGFICR (UniProt O60343) | 0.0428
TARS_P26639_656_FMADIDLDPGCTLNKK (UniProt P26639) | -0.21
TACC3_Q9Y6A5_459_LGQPAAEQLHAGPATEEPGPCLSQQLHSASAEDTPVVQLAAETPTAESK (UniProt Q9Y6A5) | -0.113
TCERG1_O14776_1062_RYLVLDCVPEER (UniProt O14776) | 0.0933
TBCK_Q8TEA7_871_ICILDGGINK (UniProt Q8TEA7) | -0.096
TBL3_Q12788_613_VWGLHCSR (UniProt Q12788) | 0.00409
TANK_Q92844_177_LNIPDTATETQCSVPIQCTDK (UniProt Q92844) | -0.0664
TAPBPL_Q9BX59_122_EVTCEISR (UniProt Q9BX59) | -0.138
TBCC_Q15814_284_AIVEDCSGIQFAPYTWSYPEIDK (UniProt Q15814) | 0.309
SYNCRIP_O60506_211_GYAFVTFCTK (UniProt O60506) | -0.0111
TARS_P26639_261_CGPLIDLCR (UniProt P26639) | 0.0971
TAPT1_Q6NXT6_562_DLLEIDRFTICGNRID (UniProt Q6NXT6) | -0.412
TANC1_Q9C0D5_1023_GHGDILQYLLTCEWSPGPPQPGTLR (UniProt Q9C0D5) | 0.123
TAF10_Q12962_174_FISDIANDALQHCK (UniProt Q12962) | 0.0418
TACC1_O75410_174_AAHGCVTAVSGK (UniProt O75410) | -0.225
TARS2_Q9BW92_322_IGKEQELFFFHELSPGSCFFLPR (UniProt Q9BW92) | -0.0453
SYNJ2_O15056_19_LGAEGDCSVLLEAR (UniProt O15056) | 0.409
TBCB_Q99426_216_YFECQAK (UniProt Q99426) | -0.0957

Same assay, conditions: 50 µM; THP-1; incubation time: 4 h

Target | probe-labelled cysteine peptide fold change
TACC1_O75410_114_TCSKPSENEVPQQAIDSHSVK (UniProt O75410) | -0.655
TAF5L_O75529_318_IHLACDILEEEDDEDDNAGTEMK (UniProt O75529) | 0.0942
TARS2_Q9BW92_233_VTGPTATVYGCGTLVDLCQGPHLR (UniProt Q9BW92) | -0.223
SYPL1_Q16563_193_IATGHNIIDELPPCK (UniProt Q16563) | 0.0871
TCEANC2_Q96MN5_163_ETFHLCSR (UniProt Q96MN5) | 0.461
TBC1D22A_Q8WUA7_151_SVSESHTSCPAESASDAAPLQR (UniProt Q8WUA7) | -0.272
TBC1D13_Q9NVG8_204_NSVPSSLNEYEVLPNGCEAHWEVVER (UniProt Q9NVG8) | 0.262
TBL3_Q12788_555_LWALQDFSCLK (UniProt Q12788) | 0.312
SYTL4_Q96C24_596_LEDLQHMCLELTVWDREPLASNDFLGGVR (UniProt Q96C24) | 0.44
TBC1D1_Q86TI0_701_SPLEPVCEDGPFGPPPEEK (UniProt Q86TI0) | 0.0357
TBC1D5_Q92609_192_ILTDVLFCYAR (UniProt Q92609) | 0.0472
TBPL1_P62380_24_CHLNLR (UniProt P62380) | 0.105
TBCK_Q8TEA7_330_SIEEVYYLWCLAGGDLEK (UniProt Q8TEA7) | 0.12
TARS_P26639_254_CGPLIDLCR (UniProt P26639) | 0.153
TBL3_Q12788_129_AIHTAPVATMAFDPTSTLLATGGCDGAVR (UniProt Q12788) | 0.303
TAPBP_O15533_91_GAPAPHCEMSR (UniProt O15533) | -0.0225
TAX1BP1_Q86VP1_196_ERCDQLQAEQK (UniProt Q86VP1) | -0.327
TARS_P26639_107_TTPYQIACGISQGLADNTVIAK (UniProt P26639) | 0.144

Target | probe-labelled cysteine peptide fold change
TBC1D4_O60343_402_HVDHFGFICR (UniProt O60343) | 0.132
TARS_P26639_656_FMADIDLDPGCTLNKK (UniProt P26639) | -0.342
TACC3_Q9Y6A5_459_LGQPAAEQLHAGPATEEPGPCLSQQLHSASAEDTPVVQLAAETPTAESK (UniProt Q9Y6A5) | -0.257
TCERG1_O14776_1062_RYLVLDCVPEER (UniProt O14776) | 0.218
TBCK_Q8TEA7_871_ICILDGGINK (UniProt Q8TEA7) | 0.167
TBL3_Q12788_613_VWGLHCSR (UniProt Q12788) | 0.216
TANK_Q92844_177_LNIPDTATETQCSVPIQCTDK (UniProt Q92844) | -0.302
TAPBPL_Q9BX59_122_EVTCEISR (UniProt Q9BX59) | 0.00987
TBCC_Q15814_284_AIVEDCSGIQFAPYTWSYPEIDK (UniProt Q15814) | 0.375
SYNCRIP_O60506_211_GYAFVTFCTK (UniProt O60506) | 0.134
TARS_P26639_261_CGPLIDLCR (UniProt P26639) | 0.248
TAPT1_Q6NXT6_562_DLLEIDRFTICGNRID (UniProt Q6NXT6) | -0.716
TANC1_Q9C0D5_1023_GHGDILQYLLTCEWSPGPPQPGTLR (UniProt Q9C0D5) | 0.518
TAF10_Q12962_174_FISDIANDALQHCK (UniProt Q12962) | -0.137
TACC1_O75410_174_AAHGCVTAVSGK (UniProt O75410) | -0.242
TARS2_Q9BW92_322_IGKEQELFFFHELSPGSCFFLPR (UniProt Q9BW92) | -0.425
SYNJ2_O15056_19_LGAEGDCSVLLEAR (UniProt O15056) | 0.208
TBCB_Q99426_216_YFECQAK (UniProt Q99426) | 0.252
